The values below come from PMC4466420.

The chains behind the UniProt entries cited, without tags or fusion partners.
UniProt A0A0D1DWZ5: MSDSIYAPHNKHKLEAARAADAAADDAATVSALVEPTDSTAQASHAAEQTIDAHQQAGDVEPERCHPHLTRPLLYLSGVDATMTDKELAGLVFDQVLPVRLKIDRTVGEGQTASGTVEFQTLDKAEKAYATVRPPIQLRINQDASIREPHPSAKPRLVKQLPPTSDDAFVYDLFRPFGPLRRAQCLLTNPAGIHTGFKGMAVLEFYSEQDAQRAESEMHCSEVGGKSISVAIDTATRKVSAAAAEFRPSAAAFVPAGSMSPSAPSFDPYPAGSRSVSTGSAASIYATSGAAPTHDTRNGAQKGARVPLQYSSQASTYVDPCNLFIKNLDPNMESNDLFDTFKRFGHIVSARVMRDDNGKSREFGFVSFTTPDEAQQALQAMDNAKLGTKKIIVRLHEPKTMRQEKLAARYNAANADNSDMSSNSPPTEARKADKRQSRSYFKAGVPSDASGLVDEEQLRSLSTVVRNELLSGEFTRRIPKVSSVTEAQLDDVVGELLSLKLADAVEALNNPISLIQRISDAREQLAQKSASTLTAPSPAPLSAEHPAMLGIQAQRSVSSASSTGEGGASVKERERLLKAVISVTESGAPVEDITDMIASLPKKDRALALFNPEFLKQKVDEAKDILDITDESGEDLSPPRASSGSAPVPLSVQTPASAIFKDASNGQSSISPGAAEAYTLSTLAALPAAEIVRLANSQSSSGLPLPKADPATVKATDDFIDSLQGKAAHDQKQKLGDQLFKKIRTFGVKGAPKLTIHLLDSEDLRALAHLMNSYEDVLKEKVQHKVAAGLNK

No constants are given. Whether binding was seen depends on the method and setting. Some entries that bind do so weakly or less than the wild type.

For experiment [1], the target named is Upa1^ΔN1-Gfp (Ustilago maydis). The experiment can be described thus: two-hybrid; Matchmaker 3 (Clontech), S. cerevisiae AH109; Upa1-Gfp versions fused to the Gal4 DNA-binding domain, Rrm4 versions to the activation domain; growth on SD plates without leucine, tryptophan, histidine and adenine, 28°C, 3 days.
In experiment [2] the target is Upa1-Gfp (Ustilago maydis). The experiment is described as above.

As for Rrm4 (from UniProt A0A0D1DWZ5 1-792), the binding result in experiment [1] and in experiment [2] was “binds” throughout.
